Measured data: PubChem BioAssay AID504808 (Drosophila RNAi Screening Center, 2011)
Aim: 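Fly genes required to hold E2F transcription in check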 (primary screen). System: Drosophila S2 cells. Reagent: long dsRNA against Drosophila genes. Measurement: 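Dual luciferase plate measurements; E2F-specific signal taken as firefly over Renilla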. Direction: E2F firefly: higher = more E2F reporter activity; Renilla normaliser: higher = more normaliser reporter signal. Active means: 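Called active if the normalised E2F reporter went up by over 50%; the cutoff is arbitrary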.
The screen tested about 21,000 reagents; shown is an unselected part of those that have a named target and a result. Over the whole deposit, 18 (0.084%) are marked active. 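Raw counts without plate normalisation, one of two replicates; the ratio scores behind the calls were not deposited.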 Unmarked entries are inactive. Not given: the amount of reagent, the time to read-out.

CG5500 [DRSC15820] | E2F firefly, rep 1: 1.17e5; Renilla normaliser, rep 1: 5130
CG15468 [DRSC18051] | E2F firefly, rep 1: 1.04e5; Renilla normaliser, rep 1: 5159
CG11911 [DRSC00331] | E2F firefly, rep 1: 87673; Renilla normaliser, rep 1: 4235
Cad87A (Cadherin 87A) [DRSC16161] | E2F firefly, rep 1: 79052; Renilla normaliser, rep 1: 3583
CG3961 [DRSC10390] | E2F firefly, rep 1: 68971; Renilla normaliser, rep 1: 3307
CG3961 [DRSC10391] | E2F firefly, rep 1: 1.50e5; Renilla normaliser, rep 1: 5932
psd (palisade) [DRSC03131] | E2F firefly, rep 1: 1.44e5; Renilla normaliser, rep 1: 4793
Elp4 (Elongator complex protein 4) [DRSC02999] | E2F firefly, rep 1: 1.32e5; Renilla normaliser, rep 1: 5011
Dab (Disabled) [DRSC11140] | E2F firefly, rep 1: 1.71e5; Renilla normaliser, rep 1: 8411
Cyp313a2 (Cytochrome P450 313a2) [DRSC16625] | E2F firefly, rep 1: 1.58e5; Renilla normaliser, rep 1: 6525
CG18810 [DRSC02701] | E2F firefly, rep 1: 91768; Renilla normaliser, rep 1: 3944
Nbr (Nibbler) [DRSC03166] | E2F firefly, rep 1: 72294; Renilla normaliser, rep 1: 3535
Elp3 (Elongator complex protein 3) [DRSC00448] | E2F firefly, rep 1: 1.41e5; Renilla normaliser, rep 1: 5073
CG31029 [DRSC15422] | E2F firefly, rep 1: 1.08e5; Renilla normaliser, rep 1: 5944
CG14352 [DRSC00382] | E2F firefly, rep 1: 1.58e5; Renilla normaliser, rep 1: 6577
UK114 [DRSC01973] | E2F firefly, rep 1: 97816; Renilla normaliser, rep 1: 4508
mAChR-A (muscarinic Acetylcholine Receptor, A-type) [DRSC04702] | E2F firefly, rep 1: 1.22e5; Renilla normaliser, rep 1: 4539
CG7910 [DRSC16341] | E2F firefly, rep 1: 1.48e5; Renilla normaliser, rep 1: 6652
Cpr23B (Cuticular protein 23B) [DRSC00555] | E2F firefly, rep 1: 1.54e5; Renilla normaliser, rep 1: 5523
aay (astray) [DRSC11320] | E2F firefly, rep 1: 70189; Renilla normaliser, rep 1: 3339
HIPP1 (HP1 and insulator partner protein 1) [DRSC11748] | E2F firefly, rep 1: 83974; Renilla normaliser, rep 1: 3530
CG3600 (retired record) [DRSC18599] | E2F firefly, rep 1: 90943; Renilla normaliser, rep 1: 5604
CG32708 [DRSC18411] | E2F firefly, rep 1: 96834; Renilla normaliser, rep 1: 5790
Pex11ab (Peroxin 11a/b) [DRSC07145] | E2F firefly, rep 1: 1.26e5; Renilla normaliser, rep 1: 4769
CG3309 [DRSC18301] | E2F firefly, rep 1: 96104; Renilla normaliser, rep 1: 6362
COX2 (retired record) [DRSC21276] | E2F firefly, rep 1: 1.43e5; Renilla normaliser, rep 1: 6805
p130CAS [DRSC07862] | E2F firefly, rep 1: 1.43e5; Renilla normaliser, rep 1: 4040
p130CAS [DRSC08257] | E2F firefly, rep 1: 65782; Renilla normaliser, rep 1: 3852
CG32147 [DRSC09346] | E2F firefly, rep 1: 1.27e5; Renilla normaliser, rep 1: 3773
Frq2 (Frequenin 2) [DRSC20245] | E2F firefly, rep 1: 1.57e5; Renilla normaliser, rep 1: 6310
CG8516 [DRSC16437] | E2F firefly, rep 1: 1.39e5; Renilla normaliser, rep 1: 7751
CG10089 [DRSC09694] | E2F firefly, rep 1: 1.08e5; Renilla normaliser, rep 1: 6279
CG10089 [DRSC09695] | E2F firefly, rep 1: 1.33e5; Renilla normaliser, rep 1: 6732
Drep1 (DNA fragmentation factor-related protein 1) [DRSC07527] | E2F firefly, rep 1: 1.00e5; Renilla normaliser, rep 1: 4337
CG15160 [DRSC02461] | E2F firefly, rep 1: 87342; Renilla normaliser, rep 1: 3862
CG14301 [DRSC14780] | E2F firefly, rep 1: 1.45e5; Renilla normaliser, rep 1: 7862
